# Experimental data from article PMC11516120.
# These are yes or no findings as the source states them, for the method shown. Binding seen in cells or lysates may run through a third protein. Some results given as binding are weak or reduced against the parent protein; the word gives no strength.
# T1: long-chain acyl-CoA synthase 6 (ACSL6) (human (endogenous in H460 and H1299)) (UniProt Q9UKU0)
# T1 sequence: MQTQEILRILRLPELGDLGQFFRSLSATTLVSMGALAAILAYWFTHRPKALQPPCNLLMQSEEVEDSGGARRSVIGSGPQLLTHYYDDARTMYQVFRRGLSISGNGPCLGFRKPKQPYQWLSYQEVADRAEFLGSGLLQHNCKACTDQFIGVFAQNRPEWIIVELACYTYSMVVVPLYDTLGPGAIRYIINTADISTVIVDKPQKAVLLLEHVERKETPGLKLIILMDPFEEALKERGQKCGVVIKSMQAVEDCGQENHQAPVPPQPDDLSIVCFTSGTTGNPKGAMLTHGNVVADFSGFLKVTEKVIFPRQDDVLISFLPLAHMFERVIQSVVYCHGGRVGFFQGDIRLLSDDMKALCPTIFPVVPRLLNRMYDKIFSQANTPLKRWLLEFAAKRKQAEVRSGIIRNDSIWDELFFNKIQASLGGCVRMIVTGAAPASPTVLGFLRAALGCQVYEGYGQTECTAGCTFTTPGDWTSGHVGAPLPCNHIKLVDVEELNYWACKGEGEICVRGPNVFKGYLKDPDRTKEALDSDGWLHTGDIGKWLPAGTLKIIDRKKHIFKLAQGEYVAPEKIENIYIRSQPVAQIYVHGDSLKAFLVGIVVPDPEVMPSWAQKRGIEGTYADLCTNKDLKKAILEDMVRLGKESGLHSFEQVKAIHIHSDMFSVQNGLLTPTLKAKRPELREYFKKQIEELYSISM
# B1: Friend leukemia integration 1 transcription factor (FLI1) (protein, UniProt Q01543 1-452)
# chain: MDGTIKEALSVVSDDQSLFDSAYGAAAHLPKADMTASGSPDYGQPHKINPLPPQQEWINQPVRVNVKREYDHMNGSRESPVDCSVSKCSKLVGGGESNPMNYNSYMDEKNGPPPPNMTTNERRVIVPADPTLWTQEHVRQWLEWAIKEYSLMEIDTSFFQNMDGKELCKMNKEDFLRATTLYNTEVLLSHLSYLRESSLLAYNTTSHTDQSSRLSVKEDPSYDSVRRGAWGNNMNSGLNKSPPLGGAQTISKNTEQRPQPDPYQILGPTSSRLANPGSGQIQLWQFLLELLSDSANASCITWEGTNGEFKMTDPDEVARRWGERKSKPNMNYDKLSRALRYYYDKNIMTKVHGKRYAYKFDFHGIAQALQPHPTESSMYKYPSDISYMPSYHAHQQKVNFVPPHPSSMPVTSSSFFGAASQYWTSPTGGIYPNPNVPRHPNTHVPSHLGSYY
# Target: T1, long-chain acyl-CoA synthase 6 (ACSL6) (human (endogenous in H460 and H1299))
# Experiment: co-IP; lysates of WT and ACSL6-overexpressing H460 and H1299 cells; immunoprecipitation overnight at 4 °C with 2 µg anti-ACSL6, Protein A+G magnetic beads, washes with NETN-300 and IP lysis buffer; western blot
binder,measurement,value
B1,binding,binds
